From US20090263381A1, “COMBINATION OF DEHYDROEPIANDROSTERONE OR DEHYDROEPIANDROSTERONE-SULFATE WITH AN ANTI-IGE ANTIBODY FOR TREATMENT OF ASTHMA OR CHRONIC OBSTRUCTIVE PULMONARY DISEASE” (priority 2003, published 2009)

Test: Aerosolization from single-dose Acu-Breathe device, fine particle fraction

Row | Structure (SMILES) | fine particle fraction (IDL data) (30 L/min, result was set to zero) | fine particle fraction versus virtually anhydrous material (neat powder, single-dose Acu-Breathe, all flow rates 30 to 75 L/min)
1 | C[C@]12CC[C@H](OS(=O)(=O)[O-])CC1=CC[C@@H]1[C@@H]2CC[C@]2(C)C(=O)CC[C@@H]12.[Na+] [Anhydrous DHEA-S] | no detectable mass entered the impactor | 
2 | CC12CCC3C(CC=C4CC(OS(=O)(=O)[O-])CCC43C)C1CCC2=O.[Na+] (centres unmarked) [DHEA-S dihydrate] |  | higher fine particle fraction than the virtually anhydrous material
